{"source": "the supplement of paper PMC8728848", "binders": {"B1": {"name": "CcfD (Bacteroides vulgatus), A6KYX8 (protein)", "chain": "MKYKNYFKSIIYLALGAFTLGSCEDFLDRQEDEKLTFDKIWESRNTTQQYWLNAMSFLPNENGSLQGDTEPYLGASDECTIAYDRQYRWINFGTWNPSQVPYYKMDHYYKGIRECNIFLQNVYKCSDPLVTKDQLDEWYWQTRFARAYYYFLMMRDYGPVFLLGDDLLDFTASTEELYRPRNTWDQCVNYVVSEMTQCAESGVVLQQSDLPAAKWGLATVGTCHAVISRLLLYSARPLFNGNKLYSTVKNPDAPDFPELSGVKLFPELDNTKWQKAAEAAKKLIDNPCYELYRAGNDNPYEDYYGVTHETWNKELIWTDRYNGLFSWGVGTVPTGVAGTAYGAVGPTQALVDAYAMNTGWYPITGYEADGTPIVEPLSGYELASELEKSSWIYPSGGWSNKADFEIEAPNMYKDREPRFYVTVFFGGNQWLHGNSATSISFAKGGNGNKSHDYPKSGYLCNRFYDHKLNSSEGQWGNITFPVFRLGEIYLNFIEAVLECKKNGVALDPSYEALAMEKWADLRKRAGLDPITSIYGQVSTEELIQLCRKERQIELAFERHRYFDTRTWMIATQTDNGKMYGMNTSCPLDAGMKGTETPDGFWERTAFETRVFQNKHYLYPFSQRELDRNKLLTQNYGW"}}, "experiment_in_all_cases": "glycan array binding signal (z-score within array); higher = stronger binding", "details_in_all_cases": "glycan notation: IUPAC condensed, linker removed", "key": {"[1]": {"molecular_target": "Fuc(a1-2)Gal(b1-4)GlcNAc(b1-3)Gal(b1-4)GlcNAc(b1-2)Man(a1-3)[Fuc(a1-2)Gal(b1-4)GlcNAc(b1-3)Gal(b1-4)GlcNAc(b1-2)Man(a1-6)]Man(b1-4)GlcNAc(b1-4)GlcNAc", "method_in_brief": "(§1)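 The binding signal is a Z-score computed within each array. Data were drawn from 3228 arrays in the Consortium for Functional Glycomics database, restricted to those with a known protein sequence. Scores were averaged over arrays of the same protein sequence at different concentrations or buffers, and over linkers, and negative values can be taken as non-binding.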"}, "[2]": {"molecular_target": "Fuc(a1-2)Gal(b1-4)GlcNAc(b1-3)Gal(b1-4)GlcNAc(b1-3)Gal(b1-4)GlcNAc", "method_in_brief": "as §1"}, "[3]": {"molecular_target": "Fuc(a1-2)Gal(b1-4)GlcNAc(b1-3)GalNAc", "method_in_brief": "as §1"}, "[4]": {"molecular_target": "Fuc(a1-2)Gal(b1-4)GlcNAc(b1-3)[Fuc(a1-2)Gal(b1-4)GlcNAc(b1-6)]GalNAc", "method_in_brief": "as §1"}, "[5]": {"molecular_target": "Fuc(a1-2)Gal(b1-4)GlcNAc(b1-3)[Fuc(a1-3)[Gal(b1-4)]GlcNAc(b1-6)]Gal(b1-4)Glc", "method_in_brief": "as §1"}, "[6]": {"molecular_target": "Fuc(a1-2)Gal(b1-4)GlcNAc(b1-6)GalNAc", "method_in_brief": "as §1"}, "[7]": {"molecular_target": "Fuc(a1-2)Gal(b1-4)GlcNAc6S", "method_in_brief": "as §1"}, "[8]": {"molecular_target": "Fuc(a1-2)Gal(b1-4)[Fuc(a1-3)]GlcNAc", "method_in_brief": "as §1"}, "[9]": {"molecular_target": "Fuc(a1-2)Gal(b1-4)[Fuc(a1-3)]GlcNAc(b1-2)Man(a1-3)[Fuc(a1-2)Gal(b1-4)[Fuc(a1-3)]GlcNAc(b1-2)Man(a1-6)]Man(b1-4)GlcNAc(b1-4)[Fuc(a1-6)]GlcNAc", "method_in_brief": "as §1"}, "[10]": {"molecular_target": "Fuc(a1-2)Gal(b1-4)[Fuc(a1-3)]GlcNAc(b1-2)[Fuc(a1-2)Gal(b1-4)[Fuc(a1-3)]GlcNAc(b1-4)]Man(a1-3)[Fuc(a1-2)Gal(b1-4)[Fuc(a1-3)]GlcNAc(b1-2)Man(a1-6)]Man(b1-4)GlcNAc(b1-4)GlcNAc", "method_in_brief": "as §1"}, "[11]": {"molecular_target": "Fuc(a1-2)Gal(b1-4)[Fuc(a1-3)]GlcNAc(b1-3)Gal(b1-4)[Fuc(a1-3)]GlcNAc", "method_in_brief": "as §1"}, "[12]": {"molecular_target": "Fuc(a1-2)Gal(b1-4)[Fuc(a1-3)]GlcNAc(b1-3)Gal(b1-4)[Fuc(a1-3)]GlcNAc(b1-3)Gal(b1-4)[Fuc(a1-3)]GlcNAc", "method_in_brief": "as §1"}, "[13]": {"molecular_target": "Fuc(a1-2)Gal(b1-4)[Fuc(a1-3)]GlcNAc(b1-3)GalNAc", "method_in_brief": "as §1"}, "[14]": {"molecular_target": "Fuc(a1-2)Gal(b1-4)[Fuc(a1-3)]GlcNAc(b1-3)[Neu5Ac(a2-6)Gal(b1-4)GlcNAc(b1-6)]Gal(b1-4)Glc", "method_in_brief": "as §1"}, "[15]": {"molecular_target": "Fuc(a1-2)Gal3S(b1-4)GlcNAc", "method_in_brief": "as §1"}, "[16]": {"molecular_target": "Fuc(a1-2)Gal6S(b1-3)GlcNAc", "method_in_brief": "as §1"}, "[17]": {"molecular_target": "Fuc(a1-2)Gal6S(b1-3)GlcNAc6S", "method_in_brief": "as §1"}, "Fuc(a1-2)Gal6S(b1-4)Glc": {"molecular_target": "Fuc(a1-2)Gal6S(b1-4)Glc", "method_in_brief": "as §1"}, "[18]": {"molecular_target": "Fuc(a1-2)Gal6S(b1-4)Glc6S", "method_in_brief": "as §1"}, "Fuc(a1-2)[Gal(a1-3)]Gal": {"molecular_target": "Fuc(a1-2)[Gal(a1-3)]Gal", "method_in_brief": "as §1"}, "[19]": {"molecular_target": "Fuc(a1-2)[Gal(a1-3)]Gal(b1-3)GalNAc", "method_in_brief": "as §1"}, "[20]": {"molecular_target": "Fuc(a1-2)[Gal(a1-3)]Gal(b1-3)GalNAc(b1-3)Gal(a1-4)Gal(b1-4)Glc", "method_in_brief": "as §1"}, "[21]": {"molecular_target": "Fuc(a1-2)[Gal(a1-3)]Gal(b1-3)GlcNAc", "method_in_brief": "as §1"}, "[22]": {"molecular_target": "Fuc(a1-2)[Gal(a1-3)]Gal(b1-3)GlcNAc(b1-2)Man(a1-3)[Fuc(a1-2)[Gal(a1-3)]Gal(b1-3)GlcNAc(b1-2)Man(a1-6)]Man(b1-4)GlcNAc(b1-4)GlcNAc", "method_in_brief": "as §1"}, "[23]": {"molecular_target": "Fuc(a1-2)[Gal(a1-3)]Gal(b1-3)GlcNAc(b1-2)Man(a1-3)[Fuc(a1-2)[Gal(a1-3)]Gal(b1-3)GlcNAc(b1-2)Man(a1-6)]Man(b1-4)GlcNAc(b1-4)[Fuc(a1-6)]GlcNAc", "method_in_brief": "as §1"}, "[24]": {"molecular_target": "Fuc(a1-2)[Gal(a1-3)]Gal(b1-3)GlcNAc(b1-3)GalNAc", "method_in_brief": "as §1"}, "[25]": {"molecular_target": "Fuc(a1-2)[Gal(a1-3)]Gal(b1-3)GlcNAc(b1-6)GalNAc", "method_in_brief": "as §1"}, "[26]": {"molecular_target": "Fuc(a1-2)[Gal(a1-3)]Gal(b1-4)Glc", "method_in_brief": "as §1"}, "[27]": {"molecular_target": "Fuc(a1-2)[Gal(a1-3)]Gal(b1-4)GlcNAc", "method_in_brief": "as §1"}, "[28]": {"molecular_target": "Fuc(a1-2)[Gal(a1-3)]Gal(b1-4)GlcNAc(b1-2)Man", "method_in_brief": "as §1"}}, "note": "The other results are listed elsewhere or left out."}
{"binder": "B1", "values": [{"measurement": "glycan array binding signal (z-score)", "setting": "[1]", "result": 4.15}, {"measurement": "glycan array binding signal (z-score)", "setting": "[2]", "result": -0.912}, {"measurement": "glycan array binding signal (z-score)", "setting": "[3]", "result": -0.002}, {"measurement": "glycan array binding signal (z-score)", "setting": "[4]", "result": -0.515}, {"measurement": "glycan array binding signal (z-score)", "setting": "[5]", "result": -0.398}, {"measurement": "glycan array binding signal (z-score)", "setting": "[6]", "result": 0.552}, {"measurement": "glycan array binding signal (z-score)", "setting": "[7]", "result": 1.84}, {"measurement": "glycan array binding signal (z-score)", "setting": "[8]", "result": 0.509}, {"measurement": "glycan array binding signal (z-score)", "setting": "[9]", "result": 0.135}, {"measurement": "glycan array binding signal (z-score)", "setting": "[10]", "result": 0.73}, {"measurement": "glycan array binding signal (z-score)", "setting": "[11]", "result": -0.424}, {"measurement": "glycan array binding signal (z-score)", "setting": "[12]", "result": -0.104}, {"measurement": "glycan array binding signal (z-score)", "setting": "[13]", "result": 0.374}, {"measurement": "glycan array binding signal (z-score)", "setting": "[14]", "result": -0.744}, {"measurement": "glycan array binding signal (z-score)", "setting": "[15]", "result": -0.454}, {"measurement": "glycan array binding signal (z-score)", "setting": "[16]", "result": 0.603}, {"measurement": "glycan array binding signal (z-score)", "setting": "[17]", "result": -0.602}, {"measurement": "glycan array binding signal (z-score)", "setting": "Fuc(a1-2)Gal6S(b1-4)Glc", "result": 0.435}, {"measurement": "glycan array binding signal (z-score)", "setting": "[18]", "result": -0.114}, {"measurement": "glycan array binding signal (z-score)", "setting": "Fuc(a1-2)[Gal(a1-3)]Gal", "result": -0.721}, {"measurement": "glycan array binding signal (z-score)", "setting": "[19]", "result": -0.729}, {"measurement": "glycan array binding signal (z-score)", "setting": "[20]", "result": -0.653}, {"measurement": "glycan array binding signal (z-score)", "setting": "[21]", "result": -0.421}, {"measurement": "glycan array binding signal (z-score)", "setting": "[22]", "result": 3.23}, {"measurement": "glycan array binding signal (z-score)", "setting": "[23]", "result": -0.424}, {"measurement": "glycan array binding signal (z-score)", "setting": "[24]", "result": 0.628}, {"measurement": "glycan array binding signal (z-score)", "setting": "[25]", "result": -0.876}, {"measurement": "glycan array binding signal (z-score)", "setting": "[26]", "result": -0.612}, {"measurement": "glycan array binding signal (z-score)", "setting": "[27]", "result": 0.079}, {"measurement": "glycan array binding signal (z-score)", "setting": "[28]", "result": -0.282}]}
